# Percent effect of library compounds

Measurements from “University of Dundee, Small-Polar-MMV Screening Library” (2021), ChEMBL document CHEMBL3988442.

Values are the deposited “Percent Effect”, in %.
How 0% and 100% were set is not recorded. Most values in the screen are low, and negative values occur.
This is an unselected part of the compounds tested.
Two or more numbers in one place are separate tests of the same structure; such repeats can differ widely.

Mtb cholesterol medium: 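Phenotypic screen: M. tuberculosis growth, cholesterol and DPPC medium, 4 days; the read-out is not stated. Concentration: 50 µM. Direction is inferred from retests: higher values go with more growth inhibition. About 69,000 compounds were tested under these conditions; 0.54% (about 370) showed 50% or more at least once.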
Mtb glucose medium: 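Phenotypic screen: M. tuberculosis growth, glucose 7H9 medium, 3 days; the read-out is not stated. Compounds at 50 µM. Higher reads as more growth inhibition (inferred: compounds with an IC50 in retests scored well above the rest). Size under these conditions: about 69,000 compounds, about 760 of them at 50% or above in at least one test.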

| # | SMILES | Mtb cholesterol medium | Mtb glucose medium |
|---|---|---|---|
| 1 | `COC1CCN(S(=O)(=O)N2CC[C@@](O)(C3CCC3)[C@H](C)C2)CC1` | 11.33% | 1.312% and 2.301% |
| 2 | `O=C(c1nnn(-c2ccc(F)cc2)n1)N(CCO)Cc1ccccc1` | -6.449% | -14.16% |
| 3 | `CS(=O)(=O)c1cn[nH]c1C1CCCN1C(=O)c1cccnc1` (stereo not shown) | 13.37% | 28.13% |
| 4 | `O=C(O)C(F)(F)F.O=C(c1ccco1)N1CCc2c(COCC3CC3)cncc2C1` | -9.648% | 16.85% |
| 5 | `O=C(NCc1ccccc1)NCC(O)c1cccc(F)c1` (stereo not shown) | -12.2% | -5.323% |
| 6 | `CCN1CCN(Cc2csc(C(C)C)n2)CC1` | 2.12% | 8.582% |
| 7 | `Cn1cccc1C(=O)N1CCCC2(CCCN2S(C)(=O)=O)C1` (stereo not shown) | 3.579% | 3.383% |
| 8 | `Cc1ccc(C(=O)N2CCCc3c(c(=O)n(C)n3C)C2)o1` | -27.81% and -10.42% | -13.89% and -13.89% |
| 9 | `CCc1nnc(C(C)N2CCN(CCC(=O)NC3CC3)CC2)o1` (stereo not shown) | 9.185% | -19.15% |
| 10 | `OCCn1nccc1C1CCN(CCOc2ccccc2F)CC1` | -0.09399% | 6.607% |
| 11 | `Cc1ccc(C(=O)NCCC(C)C)cc1NS(C)(=O)=O` | 4.44% | 6.829% |
| 12 | `O=C(CN1C(=O)CCNC1=O)N1CCC(c2ccc(F)cc2)C1` (stereo not shown) | 2.09% and -0.4217% | 7.826% |
| 13 | `O=C(O)C1CN(c2cncc(Cc3ccccc3)n2)C1` | 7.753% and 12.59% | -22.85% |
| 14 | `COc1ccc(Oc2ncccc2NC(=O)N2CCOC(C)C2)cc1` (stereo not shown) | 4.275% | 26.35% |
| 15 | `Cc1ncccc1OC1(C(=O)NCc2noc(C(C)C)n2)CCNCC1` | -15.88% | 0.298% and -2.539% |
| 16 | `O=C(O)C(F)(F)F.O=C(O)C(F)(F)F.[H][C@@]12CCC(=O)N(CC3CC3)[C@]1([H])CCN2Cc1ccccn1` | -5.866% | 0.6514% |
| 17 | `[H][C@@]12CCC(=O)N(CCCOC)[C@]1([H])CCN(Cc1cc3ccccc3o1)C2` | 3.908% | 17.38% |
| 18 | `CN(Cc1nnc(C2CC2)n1C)C(=O)c1ccnc(OC2CCC2)c1` | 22.32% | 5.058% |
| 19 | `CN(C)C(=O)Cn1c(C2CC2)c(CN2CCOCC2)c2cccnc21` | 18.3% | -1.65% |
| 20 | `CC(C)C1CN(c2nccc(N)n2)CCC(=O)N1Cc1ccc(F)cc1` (stereo not shown) | -29.8% | -17.36% and -1.776% |
| 21 | `CC(C)n1ccnc1CN1CCCN(C(=O)c2cccnc2O)CC1` | -11.91% | -20.57% |
| 22 | `Cc1ccc(-c2ncc(CNc3cnccc3CO)s2)cc1` | 20.92% | 15.71% |
| 23 | `CN(Cc1ccc(F)c2cccnc12)C1CCS(=O)(=O)C1` (stereo not shown) | -0.04139% | 11.39% and 2.739% |
| 24 | `Cc1cc(C)c2nc(CN3CCC(CN)C3)cc(O)c2c1` (stereo not shown) | -0.5182% | -9.359% |
| 25 | `CN(C(=O)Cc1ccn(C)c1)C1CCCN(C2Cc3ccccc3C2)C1` (stereo not shown) | -4.66% and -10.54% | -5.221% |
| 26 | `Cc1cc(C(=O)NCc2ccc(F)cc2)c2c(C3CCNC3)noc2n1` (stereo not shown) | 7.616% | 34.07% |
| 27 | `N[C@H]1CC[C@@H](n2cc(C(=O)N[C@H]3CCCc4ccccc43)nn2)CC1` | 23.23% | 23.03% |
| 28 | `CCc1nc(CN2CCN(C(C)c3nc(C4CC4)no3)CC2)no1` (stereo not shown) | -14.91% | -9.823% |
| 29 | `COc1ccccc1-n1nc(CC(C)C)nc1Cc1nnc(N)s1` | -8.587% | -0.3079% and -4.608% |
| 30 | `COc1ccc2c(c1)C(=O)NC1(CC2)CCN(Cc2ccccc2)C1` (stereo not shown) | 5.18% and 4.762% | 7.987% |
| 31 | `O=S(=O)(CCCn1cncn1)Cc1ccccc1Cl` | -7.639% | -6.788% and 4.473% |
| 32 | `N[C@@H]1CCC[C@@H](Oc2ccc(F)cc2Oc2cccc(F)c2)[C@@H]1O` | -8.39% | 3.825% |
| 33 | `O=C1CCC2(CCN(Cc3cc(F)ccc3Cl)CC2)CN1C1CCCC1` | -4.64% | -21.51% |
| 34 | `COc1ccc(CNCCc2cc(F)cc3c2OCOC3)cc1OC` | 7.149% | 6.225% |
| 35 | `CNC(=O)N1CCC(=Cc2ccccc2)CC1` | 4.843% | 14.49% and -1.055% |
| 36 | `CC(=O)N1CCCC(c2ccc(Cc3ccccc3)cn2)C1` (stereo not shown) | 65.82% | 81.81% |
| 37 | `COC(=O)c1ccc(NC(=O)CCNCc2ccco2)cc1` | 2.507% | 1.238% |
| 38 | `Cc1cnn(CC2CN(CC(=O)NCc3ccco3)CCO2)c1` (stereo not shown) | -10.9% | -1.385% |
| 39 | `COCC(=O)N(C)Cc1nc(N2CCCC2)ncc1-c1ccncc1.Cl` | -6.889% and -5.592% | -24.94% |
| 40 | `CN(C(=O)c1ccccc1NCC(=O)O)C(C1CC1)C1CC1` | -1.342% | 10.43% and 1.877% |
| 41 | `Cc1cc(CNC(=O)C2CCC(=O)N(Cc3ccccc3F)C2)on1` (stereo not shown) | 5.112% | -3.777% and 16.41% |
| 42 | `Cc1nnc(N2CCC(CCn3ccnc3C)CC2)o1` | 12.19% | -17.7% and -7.848% |
| 43 | `[H][C@@]12CN(Cc3cccc(C(F)(F)F)c3)C[C@]1(C(=O)O)CNC2=O` | -7.048% | -28.63% |
| 44 | `Cl.NC(Cc1nc(-c2ccccc2)no1)c1ccccc1` (stereo not shown) | 24.26% | 16.26% and 10.86% |
| 45 | `O=C(O)C(F)(F)F.O=C(O)C(F)(F)F.[H][C@@]12C[C@@H](Oc3ccc(C)cc3)CN1CCN(c1ncc(F)cn1)C2` | 28.05% | 48.24% |
| 46 | `CNS(=O)(=O)c1ccc(CN2CCCN(CC(C)C)CC2)cc1` | -23.73% | -10.35% and 2.228% |
| 47 | `CC(C)SCCn1ccc2[nH]c(=O)c(C#N)cc2c1=O` | -4.256% | -14.06% |
| 48 | `O=C(O)C(F)(F)F.O=C(O)C(F)(F)F.O=C1CCC2(CCN(Cc3ccc(F)cc3)CC2)N1CCN1CCCC1` | 0.08072% and -10.84% | 13.49% |
| 49 | `O=C(Cn1nnc(-c2ccc(F)cc2)n1)N1CCOCC(O)C1` (stereo not shown) | -5.9% | 15.39% |
| 50 | `Cn1cc(C(=O)CC2CCCN2C(=O)c2ccncc2F)cn1` (stereo not shown) | 8.571% | 16.2% |

Once more, the final 5:

SMILES,Mtb cholesterol medium,Mtb glucose medium
CNS(=O)(=O)c1ccc(CN2CCCN(CC(C)C)CC2)cc1,-23.73%,-10.35% and 2.228%
CC(C)SCCn1ccc2[nH]c(=O)c(C#N)cc2c1=O,-4.256%,-14.06%
O=C(O)C(F)(F)F.O=C(O)C(F)(F)F.O=C1CCC2(CCN(Cc3ccc(F)cc3)CC2)N1CCN1CCCC1,0.08072% and -10.84%,13.49%
O=C(Cn1nnc(-c2ccc(F)cc2)n1)N1CCOCC(O)C1 (stereo not shown),-5.9%,15.39%
Cn1cc(C(=O)CC2CCCN2C(=O)c2ccncc2F)cn1 (stereo not shown),8.571%,16.2%